Measurements reported in PubChem BioAssay AID652272 (Drosophila RNAi Screening Center, 2013)

Test: 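Genome-wide knock-down search for components of Hedgehog signalling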 (primary screen)
Cell system: Drosophila clone 8 (Cl8) cells
Reagents: long dsRNA against Drosophila genes
Read-out: 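Firefly light from a Hedgehog-responsive ptc promoter reporter and Renilla reference light, both read on a plate reader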
Scale: firefly Hh reporter signal: higher = more ptc reporter light; Renilla reference signal: higher = more Renilla control light
Hit rule: 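Hit when the z-score averaged over two replicates is under -2 or over +3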
Calls: active = hit: reporter lowered or raised; inactive = not a hit
The screen tested about 21,000 reagents; shown is a random part of those that have a named target and a result. Of all reagents, 503 (2.4%) were called active. 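Raw plate light values, not normalised; calls rest on replicate z-scores that were not deposited; hits include reporter decreases as well as increases.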 A plus sign joins genes that one reagent is predicted to hit. No sequences are given here. The record does not give: the amount of reagent, the time to read-out.

The first 6 records, ahead of the listing:
Gene | DRSC id | firefly Hh reporter signal, replicate 1 | firefly Hh reporter signal, replicate 2 | firefly Hh reporter signal, replicate 3 | Renilla reference signal, replicate 1 | Renilla reference signal, replicate 2 | call
CG13344 | DRSC06378 | 1.11e5 | 94923 | – | 4820 | 4048 | inactive
CG43307 | DRSC00893 | 7.95e5 | 2.63e5 | – | 42198 | 11947 | inactive
Brr2 | DRSC10559 | 39788 | 17264 | – | 2816 | 1280 | active
superdeath | DRSC14868 | 5.02e5 | 61939 | – | 2553 | 2553 | inactive
Deaf1 | DRSC11143 | 1.49e5 | 5.14e5 | 1.80e5 | 5394 | 3591 | inactive
CG3117 | DRSC00568 | 1.64e5 | 92829 | – | 3624 | 2387 | inactive

Results, repeating the preview:
Gene | DRSC id | firefly Hh reporter signal, replicate 1 | firefly Hh reporter signal, replicate 2 | firefly Hh reporter signal, replicate 3 | Renilla reference signal, replicate 1 | Renilla reference signal, replicate 2 | call
CG13344 | DRSC06378 | 1.11e5 | 94923 | – | 4820 | 4048 | inactive
CG43307 | DRSC00893 | 7.95e5 | 2.63e5 | – | 42198 | 11947 | inactive
Brr2 | DRSC10559 | 39788 | 17264 | – | 2816 | 1280 | active
superdeath | DRSC14868 | 5.02e5 | 61939 | – | 2553 | 2553 | inactive
Deaf1 | DRSC11143 | 1.49e5 | 5.14e5 | 1.80e5 | 5394 | 3591 | inactive
CG3117 | DRSC00568 | 1.64e5 | 92829 | – | 3624 | 2387 | inactive
fd96Ca | DRSC16946 | 4.96e5 | 69413 | – | 24713 | 2193 | inactive
CG34370 | DRSC03913 | 1.68e5 | 2.99e5 | – | 5123 | 14805 | inactive
CG34370 | DRSC04142 | 90321 | 39003 | – | 2288 | 3559 | inactive
CG34370 | DRSC04143 | 1.12e5 | 56434 | – | 2630 | 5158 | inactive
CG34370 | DRSC04144 | 1.00e5 | 38289 | – | 2464 | 3592 | inactive
Zip89B | DRSC16128 | 70592 | 63526 | – | 2640 | 1842 | inactive
GlyT | DRSC04512 | 52874 | 43564 | – | 1228 | 4368 | inactive
RN-tre | DRSC07521 | 1.32e5 | 86455 | – | 3059 | 6091 | inactive
Svip | DRSC08982 | 1.04e5 | 1.89e5 | – | 2935 | 7735 | inactive
CG31419 | DRSC15771 | 66390 | 92220 | – | 1705 | 2241 | inactive
lncRNA:CR32658 | DRSC19402 | 88996 | 2.49e5 | – | 2181 | 9603 | inactive
tplus3a + tplus3b | DRSC03687 | 1.06e5 | 1.89e5 | – | 3377 | 10052 | inactive
Nepl12 | DRSC16411 | 70969 | 81930 | – | 2307 | 2321 | inactive
CG13067 | DRSC09950 | 1.81e5 | – | – | 5834 | 5207 | inactive
CG7213 | DRSC10787 | 67207 | 58835 | – | 6658 | 4218 | inactive
CG7766 | DRSC18424 | 70011 | 77715 | – | 1863 | 1572 | inactive
CG7600 | DRSC09681 | 1.25e5 | 71642 | – | 6513 | 4285 | inactive
CG40551 (retired record) | DRSC21229 | 7.14e5 | 2.86e5 | – | 40551 | 6173 | inactive
DIP-beta | DRSC20461 | 3.84e5 | 1.65e5 | – | 26130 | 3812 | inactive
DIP-beta | DRSC20489 | 53291 | 2.21e5 | – | 1530 | 10397 | inactive
DIP-beta | DRSC20490 | 1.13e5 | 2.89e5 | – | 2301 | 13121 | inactive
DIP-beta | DRSC20505 | 1.18e5 | 3.25e5 | – | 2213 | 14848 | inactive
CR40282 | DRSC07814 | 76131 | 41030 | – | 2646 | 2948 | inactive
Rev1 | DRSC08264 | 1.16e5 | 73786 | – | 4592 | 1801 | inactive
Gorab | DRSC10383 | 1.04e5 | – | – | 6771 | 2868 | inactive
babos | DRSC03923 | 1.05e5 | 2.50e5 | – | 2503 | 10617 | inactive
babos | DRSC04397 | 1.10e5 | 88821 | – | 4905 | 3712 | inactive
zen | DRSC12632 | 72354 | 1.02e5 | – | 2757 | 2726 | inactive
CG9920 | DRSC16578 | 84697 | 88944 | – | 2064 | 2080 | inactive
Pgant9 | DRSC05621 | 1.37e5 | 3.09e5 | – | 4133 | 11488 | inactive
Pgant9 | DRSC06584 | 95594 | 40883 | – | 2744 | 3152 | inactive
Pgant9 | DRSC07185 | 1.08e5 | 56377 | – | 3156 | 4631 | inactive
Pgant9 | DRSC07186 | 1.10e5 | 41395 | – | 2937 | 3223 | inactive
Pgant9 | DRSC07187 | 1.41e5 | 49323 | – | 4212 | 3682 | inactive
Pgant9 | DRSC07189 | 98204 | 48201 | – | 2778 | 3045 | inactive
PGRP-LB | DRSC14926 | 1.62e5 | 1.18e5 | – | 5932 | 4259 | inactive
CG12134 | DRSC06109 | 1.18e5 | 78661 | – | 2659 | 6852 | inactive
Sptz | DRSC15758 | 94577 | 86440 | – | 3257 | 2600 | inactive
CkIIalpha-i1 | DRSC11115 | 1.42e5 | – | – | 5138 | 4244 | inactive
shi | DRSC20373 | 79958 | 57848 | – | 2096 | 1346 | inactive
CG10348 | DRSC02043 | 1.58e5 | 89416 | – | 3671 | 8821 | inactive
mRpL2 | DRSC10896 | 39462 | 36388 | 35802 | 4807 | 2528 | inactive
CG30269 | DRSC04158 | 1.66e5 | 86405 | – | 4219 | 7552 | inactive
CG18367 | DRSC06545 | 1.18e5 | 94074 | – | 3282 | 6419 | inactive
Ugt303B1 | DRSC15141 | 7.10e5 | 95457 | – | 32624 | 2848 | inactive
CG14000 + bchs | DRSC02333 | 89195 | 39830 | – | 2253 | 4069 | inactive
CG18231 | DRSC10307 | 83680 | – | – | 3370 | 2487 | inactive
bero | DRSC03211 | 1.10e5 | 37421 | – | 3219 | 4602 | inactive
Hsp60B | DRSC00542 | 1.07e5 | 71218 | – | 4355 | 3123 | inactive
ptc | DRSC05117 | 2.09e5 | 3.38e5 | – | 3472 | 9442 | active
ptc | DRSC07669 | 1.30e5 | 74402 | – | 2066 | 4928 | active
